# Laboratory results: paper PMC5428976
# Chains of the proteins cited; added tags and fusions are not shown. Lines headed by an entry give the natural chain unless they say otherwise; changes in a name come on top.
# UniProt Q8TEB1: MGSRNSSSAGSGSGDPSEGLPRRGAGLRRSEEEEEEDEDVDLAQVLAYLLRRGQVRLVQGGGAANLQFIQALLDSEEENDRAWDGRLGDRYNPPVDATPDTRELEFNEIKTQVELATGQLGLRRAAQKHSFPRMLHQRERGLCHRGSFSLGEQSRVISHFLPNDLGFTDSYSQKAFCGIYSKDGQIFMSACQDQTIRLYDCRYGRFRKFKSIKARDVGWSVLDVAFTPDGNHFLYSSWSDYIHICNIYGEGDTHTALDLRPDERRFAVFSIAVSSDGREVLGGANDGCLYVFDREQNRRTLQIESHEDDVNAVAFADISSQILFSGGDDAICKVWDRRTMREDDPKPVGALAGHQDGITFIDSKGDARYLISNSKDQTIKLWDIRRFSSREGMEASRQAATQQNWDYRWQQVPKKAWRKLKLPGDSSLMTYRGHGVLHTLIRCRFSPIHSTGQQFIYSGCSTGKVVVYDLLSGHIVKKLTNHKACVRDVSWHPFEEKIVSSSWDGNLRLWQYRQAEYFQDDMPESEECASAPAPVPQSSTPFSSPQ
# UniProt Q16236: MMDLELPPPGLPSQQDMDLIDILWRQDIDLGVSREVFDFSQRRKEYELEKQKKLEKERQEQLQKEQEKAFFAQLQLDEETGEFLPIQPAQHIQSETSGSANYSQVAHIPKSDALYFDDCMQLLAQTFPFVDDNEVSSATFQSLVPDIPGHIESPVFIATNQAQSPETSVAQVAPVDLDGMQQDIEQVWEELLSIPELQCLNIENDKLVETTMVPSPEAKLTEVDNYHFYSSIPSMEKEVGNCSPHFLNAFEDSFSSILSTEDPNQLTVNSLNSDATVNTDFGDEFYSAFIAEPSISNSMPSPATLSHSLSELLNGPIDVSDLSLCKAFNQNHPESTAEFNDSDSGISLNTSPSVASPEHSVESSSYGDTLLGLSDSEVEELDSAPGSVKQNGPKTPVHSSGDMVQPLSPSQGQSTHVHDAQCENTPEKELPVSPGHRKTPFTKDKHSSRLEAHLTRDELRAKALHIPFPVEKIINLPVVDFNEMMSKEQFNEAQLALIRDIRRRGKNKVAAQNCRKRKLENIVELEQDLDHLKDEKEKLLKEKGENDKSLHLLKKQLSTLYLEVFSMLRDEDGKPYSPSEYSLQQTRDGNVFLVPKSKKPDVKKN
# UniProt Q14145: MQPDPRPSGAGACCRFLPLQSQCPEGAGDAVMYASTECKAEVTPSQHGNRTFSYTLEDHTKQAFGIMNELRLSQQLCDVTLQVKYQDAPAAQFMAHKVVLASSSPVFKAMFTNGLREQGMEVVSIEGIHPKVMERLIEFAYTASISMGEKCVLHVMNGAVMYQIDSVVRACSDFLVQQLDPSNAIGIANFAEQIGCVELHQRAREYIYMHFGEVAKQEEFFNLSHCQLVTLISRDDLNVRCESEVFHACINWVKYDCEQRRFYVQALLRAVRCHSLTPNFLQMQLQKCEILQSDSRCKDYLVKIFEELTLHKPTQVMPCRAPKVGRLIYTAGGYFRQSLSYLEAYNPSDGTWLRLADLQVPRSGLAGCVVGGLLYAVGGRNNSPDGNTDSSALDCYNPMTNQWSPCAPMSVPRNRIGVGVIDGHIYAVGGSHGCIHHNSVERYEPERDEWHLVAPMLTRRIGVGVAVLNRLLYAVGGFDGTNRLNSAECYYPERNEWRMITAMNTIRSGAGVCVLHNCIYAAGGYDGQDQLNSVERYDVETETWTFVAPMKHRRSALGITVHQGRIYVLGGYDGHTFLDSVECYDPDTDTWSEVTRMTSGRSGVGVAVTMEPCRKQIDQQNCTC
# UniProt Q16531: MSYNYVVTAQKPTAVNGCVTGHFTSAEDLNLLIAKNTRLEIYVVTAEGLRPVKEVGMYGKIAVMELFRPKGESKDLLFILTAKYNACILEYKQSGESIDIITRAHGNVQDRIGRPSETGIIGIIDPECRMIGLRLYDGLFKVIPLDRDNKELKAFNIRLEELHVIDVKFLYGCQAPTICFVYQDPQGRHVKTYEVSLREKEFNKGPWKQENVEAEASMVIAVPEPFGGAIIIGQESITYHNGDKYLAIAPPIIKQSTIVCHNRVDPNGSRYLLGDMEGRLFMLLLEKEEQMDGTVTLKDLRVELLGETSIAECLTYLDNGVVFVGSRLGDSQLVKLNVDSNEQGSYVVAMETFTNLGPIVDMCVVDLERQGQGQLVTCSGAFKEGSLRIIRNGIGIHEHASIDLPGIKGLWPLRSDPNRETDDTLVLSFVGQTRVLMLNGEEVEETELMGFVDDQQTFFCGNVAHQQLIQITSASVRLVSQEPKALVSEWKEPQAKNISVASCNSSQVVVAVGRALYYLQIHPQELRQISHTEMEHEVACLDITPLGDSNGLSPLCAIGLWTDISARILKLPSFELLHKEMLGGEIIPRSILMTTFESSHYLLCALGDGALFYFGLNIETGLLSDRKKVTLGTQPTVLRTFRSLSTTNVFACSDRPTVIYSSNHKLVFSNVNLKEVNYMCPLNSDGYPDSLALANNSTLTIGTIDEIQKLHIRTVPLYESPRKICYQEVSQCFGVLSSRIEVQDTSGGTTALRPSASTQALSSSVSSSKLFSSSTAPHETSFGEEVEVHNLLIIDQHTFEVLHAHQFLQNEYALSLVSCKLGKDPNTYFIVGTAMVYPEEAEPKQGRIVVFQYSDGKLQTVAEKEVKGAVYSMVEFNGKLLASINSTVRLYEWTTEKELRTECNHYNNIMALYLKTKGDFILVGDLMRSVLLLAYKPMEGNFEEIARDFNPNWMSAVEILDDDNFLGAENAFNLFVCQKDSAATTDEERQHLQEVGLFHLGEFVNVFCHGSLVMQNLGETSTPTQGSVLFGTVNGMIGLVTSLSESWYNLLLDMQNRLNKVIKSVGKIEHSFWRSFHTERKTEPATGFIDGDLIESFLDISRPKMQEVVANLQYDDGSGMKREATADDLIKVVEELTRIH
# UniProt Q13619: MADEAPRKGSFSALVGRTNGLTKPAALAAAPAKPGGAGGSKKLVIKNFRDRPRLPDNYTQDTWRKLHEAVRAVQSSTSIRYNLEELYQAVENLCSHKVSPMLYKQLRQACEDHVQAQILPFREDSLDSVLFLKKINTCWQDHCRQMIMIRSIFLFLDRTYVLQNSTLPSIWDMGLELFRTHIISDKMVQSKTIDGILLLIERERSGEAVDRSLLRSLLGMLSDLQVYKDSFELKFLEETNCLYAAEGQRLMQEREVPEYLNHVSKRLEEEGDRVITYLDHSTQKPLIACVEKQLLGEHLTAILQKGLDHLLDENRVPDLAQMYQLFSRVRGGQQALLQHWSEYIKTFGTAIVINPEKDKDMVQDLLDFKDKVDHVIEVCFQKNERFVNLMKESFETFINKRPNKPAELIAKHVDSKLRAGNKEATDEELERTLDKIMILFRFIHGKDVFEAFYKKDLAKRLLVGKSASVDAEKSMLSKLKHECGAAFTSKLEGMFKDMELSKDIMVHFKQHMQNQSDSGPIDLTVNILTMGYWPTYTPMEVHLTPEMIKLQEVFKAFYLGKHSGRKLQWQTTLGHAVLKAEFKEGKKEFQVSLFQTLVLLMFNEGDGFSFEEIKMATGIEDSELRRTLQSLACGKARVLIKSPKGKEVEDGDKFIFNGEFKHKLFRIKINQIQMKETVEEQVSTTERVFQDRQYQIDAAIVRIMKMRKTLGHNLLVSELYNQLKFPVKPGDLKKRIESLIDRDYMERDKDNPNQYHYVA
# Results are given in words; binding and its absence hold for the method and conditions named. In cells and extracts the contact can be indirect. Binding calls can cover weak binding; strength is not graded here.
# Columns and labels:
# Assay in all cases: co-IP; HEK-293T cells transiently transfected, 24 h, no MG-132; lysed in 0.5% CHAPS buffer (10mM Tris/Cl pH 7.5, 150mM NaCl, 0.5mM EDTA); GFP:WDR23 (or GFP) precipitated with magnetic agarose GFP Trap beads, 1 hour at 4°C, three washes; Western blot; some cells treated with 250μM H2O2
# [1] = target: GFP:WDR23 isoform 2 (human) (UniProt Q8TEB1)
# [2] = target: GFP:WDR23 isoform 1 (human) (UniProt Q8TEB1)
# [3] = target: GFP:WDR23 isoform 2 (H306Y) (human) (UniProt Q8TEB1)
Substance,binding [1],binding [2],binding [3]
NRF2ΔNeh6 (from UniProt Q16236),binds,binds,
NRF2(ΔNeh2) (from UniProt Q16236),no binding,no binding,
NRF2ΔNeh1 (from UniProt Q16236),binds,binds,
NRF2ΔNeh3 (from UniProt Q16236),binds,binds,
"NRF2ΔNeh4,5 (from UniProt Q16236)",binds,binds,
KEAP1 (from UniProt Q14145 1-624),no binding,no binding,
DDB1 (from UniProt Q16531 1-1140),binds,binds,binds
CUL4A (from UniProt Q13619 1-759),binds,binds,binds
